# According to article PMC11360871:
# Protein sequences, listed by entry. Tags and fused reporters are not part of them.
# UniProt Q04207: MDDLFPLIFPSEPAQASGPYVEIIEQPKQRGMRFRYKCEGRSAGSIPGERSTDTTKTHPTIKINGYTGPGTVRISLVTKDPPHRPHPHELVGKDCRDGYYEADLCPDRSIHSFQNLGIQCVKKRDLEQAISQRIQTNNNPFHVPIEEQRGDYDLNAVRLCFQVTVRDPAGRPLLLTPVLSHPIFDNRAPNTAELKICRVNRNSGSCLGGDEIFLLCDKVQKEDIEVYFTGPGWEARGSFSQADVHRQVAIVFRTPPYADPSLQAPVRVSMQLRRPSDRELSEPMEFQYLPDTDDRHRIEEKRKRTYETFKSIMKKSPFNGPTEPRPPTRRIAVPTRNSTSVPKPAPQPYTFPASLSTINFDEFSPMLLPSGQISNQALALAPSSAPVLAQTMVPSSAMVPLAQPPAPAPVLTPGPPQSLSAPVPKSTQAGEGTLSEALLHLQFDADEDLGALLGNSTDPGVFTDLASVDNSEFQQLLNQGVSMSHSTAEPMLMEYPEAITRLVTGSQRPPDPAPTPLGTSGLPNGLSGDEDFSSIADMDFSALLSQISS
# Results are given in words; binding and its absence hold for the method and conditions named. In cells and extracts the contact can be indirect. Some binding calls cover weakened binding; strength is not graded here.
# Key:
# [1] = target: T1, Nuclear factor (erythroid-derived 2)-like 1 (Nrf1) (mouse (endogenous in mouse brain tissue and mouse primary microglia)) (UniProt Q9WU00); experiment: co-IP; anti-Nrf1 antibody (Abcam) on protein A + G magnetic beads, IgG as negative control, overnight at 4 °C, western blot; cell nucleus of ischaemic brain tissue of mice 24 h after MCAO/R; mice treated with vehicle, PTS, ITSA1, RGFP966 or PTS + ITSA1
# T1 sequence: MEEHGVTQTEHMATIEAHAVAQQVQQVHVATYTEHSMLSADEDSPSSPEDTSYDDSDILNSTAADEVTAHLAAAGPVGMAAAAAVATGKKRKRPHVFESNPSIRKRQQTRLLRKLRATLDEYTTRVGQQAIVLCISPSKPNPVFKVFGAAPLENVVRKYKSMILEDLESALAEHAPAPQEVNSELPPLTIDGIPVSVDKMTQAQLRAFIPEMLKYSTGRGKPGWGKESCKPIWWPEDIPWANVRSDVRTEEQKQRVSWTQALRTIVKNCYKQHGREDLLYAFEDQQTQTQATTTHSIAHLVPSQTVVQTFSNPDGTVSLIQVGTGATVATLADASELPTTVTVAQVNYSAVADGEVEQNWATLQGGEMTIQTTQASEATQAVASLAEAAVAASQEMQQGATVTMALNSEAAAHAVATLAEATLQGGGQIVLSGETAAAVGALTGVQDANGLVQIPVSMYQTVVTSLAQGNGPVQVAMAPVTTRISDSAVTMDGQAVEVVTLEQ
# [2] = target: T1, Nuclear factor (erythroid-derived 2)-like 1 (Nrf1) (mouse (endogenous in mouse brain tissue and mouse primary microglia)); experiment: co-IP; anti-Nrf1 antibody (Abcam) on protein A + G magnetic beads, IgG as negative control, overnight at 4 °C, western blot; cell nuclei of mouse primary microglia after OGD/R, treated with vehicle, PTS or ITSA1 + PTS for 24 h
substance,measurement,setting,value
NF-κB p65 (from UniProt Q04207 1-549),binding,[1],binds
same,binding,[2],binds
